The chains behind the UniProt entries cited, without tags or fusion partners. Residues count along the entry.
UniProt Q9BUB5, 1-424 isoform Q9BUB5-2 T344D: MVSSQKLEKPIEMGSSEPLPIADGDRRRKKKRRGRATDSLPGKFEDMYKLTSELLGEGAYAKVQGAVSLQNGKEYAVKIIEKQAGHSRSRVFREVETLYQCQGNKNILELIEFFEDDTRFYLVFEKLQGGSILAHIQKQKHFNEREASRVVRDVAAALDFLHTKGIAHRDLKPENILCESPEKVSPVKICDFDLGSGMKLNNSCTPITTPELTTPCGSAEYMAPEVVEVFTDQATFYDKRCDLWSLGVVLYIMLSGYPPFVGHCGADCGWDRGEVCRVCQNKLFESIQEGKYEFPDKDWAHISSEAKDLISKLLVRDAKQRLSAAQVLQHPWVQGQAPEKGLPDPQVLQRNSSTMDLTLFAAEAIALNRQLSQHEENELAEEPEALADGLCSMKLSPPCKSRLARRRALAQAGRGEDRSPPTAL

According to US9540392B2, “Thienopyrimidines” (BAYER PHARMA AKTIENGESELLSCHAFT, priority 2012, dated 2017):

Target: T1, human full-length MKNK1 (Homo sapiens, UniProt Q9BUB5, T385D)
T1 construct: GST (N); purchased Carna Biosciences 02-145; host or cells: insect cells (baculovirus expression system)
Assay: MKNK1 kinase high ATP assay (TR-FRET)
Assay type: biochemical
Conditions: 2 mM ATP, after preincubation with MKNK1
Procedure: MKNK1-inhibitory activity at high ATP of compounds of the present invention after their preincubation with MKNK1 was quantified employing the TR-FRET-based MKNK1 high ATP assay as described in the following paragraphs.
As substrate for the kinase reaction the biotinylated peptide biotin-Ahx-[…] (C-terminus in amide form) was used, which can be purchased e.g. from the company Biosyntan (Berlin-Buch, Germany). […]
The resulting mixture was incubated for 1 h at 22° C. to allow the formation of complex between the phosphorylated biotinylated peptide and the detection reagents. Subsequently the amount of phosphorylated substrate was evaluated by measurement of the resonance energy transfer from the Eu-chelate to the streptavidine-XL. Therefore, the fluorescence emissions at 620 nm and 665 nm after excitation at 350 nm were measured in a TR-FRET reader, e.g. a Rubystar (BMG Labtechnologies, Offenburg, Germany) or a Viewlux (Perkin-Elmer). […]

Structure (SMILES): CCOc1cc2[nH]ncc2cc1Nc1ncnc2sc3c(c12)CCC(C(=O)N1CC(C#N)C1)C3 (racemic) [Example 232, (RS)-1-({4-[(6-Ethoxy-1H-indazol-5-yl)amino]-5,6,7,8-tetrahydro[1]benzothieno[2,3-d]pyrimidin-7-yl}carbonyl)azetidine-3-carbonitrile]
- IC50: 0.1 nM
